Experimental data taken from PubChem BioAssay AID939 (National Center for Advancing Translational Sciences (NCATS), 2007).
The other results are listed elsewhere or left out.

Test: Confirmation Concentration-Response Assay for Agonists of the Thyroid Stimulating Hormone Receptor
Conditions: HEK293 TSHR-CNG cells, membrane potential dye, cAMP; measured here: parental HEK293 counter-screen max
Description: NIH Chemical Genomics Center [NCGC] NIH Molecular Libraries Screening Centers Network [MLSCN] MLSCN Grant: 1 X01 MH080680-01 PI Name: Dr. Marvin Gershengorn, NIH NCGC Assay Overview: Thyroid Stimulating Hormone Receptor TSH is an alpha/beta heterodimeric glycoprotein hormone secreted from the anterior pituitary gland which belongs to the glycoprotein hormone family. The actions of TSH are mediated by a seven-transmembrane receptor, which upon TSH binding couples preferentially to the G-alpha (s) protein (Gs), resulting in activation of adenylate cyclase and increase in cyclic adenosine 3', 5' monophosphate (cAMP). The TSH receptor (THSR) is mainly expressed in thyroid follicular cells and regulates their growth and function. […]
NCGC Assay Protocol Summary: High Throughput Screening. […] 23 nl/well compound or control was then added to the assay plates, which were incubated for additional 30 min before reading a Envision fluorescence plate reader (Perkin Elmer) in bottom-read mode for fluorescence intensity (emission at 590 nm). Keywords: Thyroid-stimulating hormone TSH, TSHR, TSHR agonist, quantitative high throughput screening, qHTS, HTS, probe identification, CNG, cAMP, cyclic nucleotide gated ion channel PubChem

Cc1nn(-c2ccccc2)c2c1P(=O)(N1CCOCC1)N(C)C(c1ccccc1)=N2 (stereo unspecified)
max response: -3.63%
